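Malaria parasite (P. falciparum) lines kept in red blood cells; parasite DNA is measured by SYBR Green fluorescence after lysis, 72 h after compound addition. Each compound was titrated across a series from about 0.000037 to 29 µM. The number is the fitted AC50, the concentration giving a half-maximal change in signal; a lower value means higher potency, whether the curve shows a decrease or an increase. Calls follow the curve class and fit quality: every row here is inconclusive, covering signal-raising curves and weak, poorly fitted, partial or highest-dose-only inhibition curves.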

Values are in µM. Every entry below has the call inconclusive. These entries are mostly ones the record files as inconclusive; other results of the assay are not listed here. A potency from a partial, single-point or poor curve is only a rough figure. Some entries filed as inconclusive have a full curve. The first word of each remark tells which way the curve ran; it can be opposite to the aim of the assay.

SMILES | setting | Potency (µM) | remark
CC(CCc1ccccc1)NC(C)C(O)c1ccc(O)cc1 (centres undefined) | DIV30 | 15.1 | inhibitor, single point
CC(CCc1ccccc1)NC(C)C(O)c1ccc(O)cc1 (centres undefined) | CP194 | 15.1 | inhibitor, single point
CC(CCc1ccccc1)NC(C)C(O)c1ccc(O)cc1 (centres undefined) | CP215 | 19.01 | inhibitor, single point
CC(CCc1ccccc1)NC(C)C(O)c1ccc(O)cc1 (centres undefined) | P94_40 | 10 | inhibitor, single point
CC(CCc1ccccc1)NC(C)C(O)c1ccc(O)cc1 (centres undefined) | P93_24 | 3.981 | inhibitor, full curve, poor fit
CC(CCc1ccccc1)NC(C)C(O)c1ccc(O)cc1 (centres undefined) | TAB109 | 12.59 | inhibitor, single point
CC(CCc1ccccc1)NC(C)C(O)c1ccc(O)cc1 (centres undefined) | C2A | 17.78 | inhibitor, single point
CC(CCc1ccccc1)NC(C)C(O)c1ccc(O)cc1 (centres undefined) | CP269 | 19.01 | inhibitor, single point
CC(CCc1ccccc1)NC(C)C(O)c1ccc(O)cc1 (centres undefined) | CP201 | 15.1 | inhibitor, partial curve, poor fit
CC(CCc1ccccc1)NC(C)C(O)c1ccc(O)cc1 (centres undefined) | PC15 | 12.59 | inhibitor, single point
CC(CCc1ccccc1)NC(C)C(O)c1ccc(O)cc1 (centres undefined) | CP238 | 10 | inhibitor, single point
CC(CCc1ccccc1)NC(C)C(O)c1ccc(O)cc1 (centres undefined) | TAB165 | 11.22 | inhibitor, single point
CC(CCc1ccccc1)NC(C)C(O)c1ccc(O)cc1 (centres undefined) | CP203 | 19.01 | inhibitor, single point
CC(CCc1ccccc1)NC(C)C(O)c1ccc(O)cc1 (centres undefined) | AA1029 | 8.912 | inhibitor, partial curve
CC(CCc1ccccc1)NC(C)C(O)c1ccc(O)cc1 (centres undefined) | CP335 | 16.94 | inhibitor, partial curve, poor fit
CC(CCc1ccccc1)NC(C)C(O)c1ccc(O)cc1 (centres undefined) | N140 | 12.59 | inhibitor, single point
CC(CCc1ccccc1)NC(C)C(O)c1ccc(O)cc1 (centres undefined) | GB4 | 8.492 | inhibitor, partial curve
CC(CCc1ccccc1)NC(C)C(O)c1ccc(O)cc1 (centres undefined) | CP260 | 8.912 | inhibitor, single point
CC(CCc1ccccc1)NC(C)C(O)c1ccc(O)cc1 (centres undefined) | CP305 | 9.528 | inhibitor, partial curve
CC(CCc1ccccc1)NC(C)C(O)c1ccc(O)cc1 (centres undefined) | 7G8 | 12.59 | inhibitor, partial curve
CC(CCc1ccccc1)NC(C)C(O)c1ccc(O)cc1 (centres undefined) | CP291 | 13.46 | inhibitor, partial curve
O=C1c2cccc(O)c2C(=O)c2c(O)cccc21 | W2 | 15.1 | inhibitor, single point
O=C1c2cccc(O)c2C(=O)c2c(O)cccc21 | 7G8 | 17.78 | inhibitor, single point
O=C1c2cccc(O)c2C(=O)c2c(O)cccc21 | CP203 | 0.0085 | activator, full curve, poor fit
CC(O)CN(C)C (centres undefined) | CP329 | 0.0043 | activator, full curve, poor fit
CC(O)CN(C)C (centres undefined) | CP266 | 0.0034 | activator
CCCn1cnc2c1c(=O)n(CCCCC(C)=O)c(=O)n2C | GB4 | 19.01 | inhibitor, single point
CCCn1cnc2c1c(=O)n(CCCCC(C)=O)c(=O)n2C | P93_24 | 17.78 | inhibitor, single point
CCCn1cnc2c1c(=O)n(CCCCC(C)=O)c(=O)n2C | CP269 | 4.256 | activator, partial curve, poor fit
CCCn1cnc2c1c(=O)n(CCCCC(C)=O)c(=O)n2C | ICS | 11.22 | inhibitor, single point
CCCn1cnc2c1c(=O)n(CCCCC(C)=O)c(=O)n2C | DIV17 | 13.46 | inhibitor, single point
Cc1cccc(C)c1NC(=O)CN1CCCC1 | CP250 | 1.122 | inhibitor, single point
Cc1cccc(C)c1NC(=O)CN1CCCC1 | CP266 | 3.381 | activator, single point
Cc1cccc(C)c1NC(=O)CN1CCCC1 | W2 | 19.01 | inhibitor, partial curve, poor fit
Cc1cccc(C)c1NC(=O)CN1CCCC1 | CP237 | 10 | inhibitor, single point
COc1ccc2cc(CCC(C)=O)ccc2c1 | AS120 | 1.778 | inhibitor, single point
COc1ccc2cc(CCC(C)=O)ccc2c1 | CP266 | 0.0051 | inhibitor, full curve, poor fit
COc1ccc2cc(CCC(C)=O)ccc2c1 | CP262 | 1.614 | activator, full curve, poor fit
CCC1OC(=O)CC(O)C(C)[C@@H](O[C@@H]2OC(C)[C@H](O[C@@H]3C[C@@](C)(O)C(O)C(C)O3)C(N(C)C)C2O)[C@H](CC=O)CC(C)C(=O)/C=C/C(C)=C/[C@@H]1COC1OC(C)C(O)C(OC)[C@@H]1OC (some centres undefined) | CP262 | 4.256 | inhibitor, single point
CCC1OC(=O)CC(O)C(C)[C@@H](O[C@@H]2OC(C)[C@H](O[C@@H]3C[C@@](C)(O)C(O)C(C)O3)C(N(C)C)C2O)[C@H](CC=O)CC(C)C(=O)/C=C/C(C)=C/[C@@H]1COC1OC(C)C(O)C(OC)[C@@H]1OC (some centres undefined) | CP252 | 1.413 | inhibitor, full curve
CCC1OC(=O)CC(O)C(C)[C@@H](O[C@@H]2OC(C)[C@H](O[C@@H]3C[C@@](C)(O)C(O)C(C)O3)C(N(C)C)C2O)[C@H](CC=O)CC(C)C(=O)/C=C/C(C)=C/[C@@H]1COC1OC(C)C(O)C(OC)[C@@H]1OC (some centres undefined) | 7G8 | 2.239 | inhibitor, partial curve
CCC1OC(=O)CC(O)C(C)[C@@H](O[C@@H]2OC(C)[C@H](O[C@@H]3C[C@@](C)(O)C(O)C(C)O3)C(N(C)C)C2O)[C@H](CC=O)CC(C)C(=O)/C=C/C(C)=C/[C@@H]1COC1OC(C)C(O)C(OC)[C@@H]1OC (some centres undefined) | CP237 | 1.122 | inhibitor, full curve
CCC1OC(=O)CC(O)C(C)[C@@H](O[C@@H]2OC(C)[C@H](O[C@@H]3C[C@@](C)(O)C(O)C(C)O3)C(N(C)C)C2O)[C@H](CC=O)CC(C)C(=O)/C=C/C(C)=C/[C@@H]1COC1OC(C)C(O)C(OC)[C@@H]1OC (some centres undefined) | CP269 | 0.9528 | inhibitor, full curve
CCC1OC(=O)CC(O)C(C)[C@@H](O[C@@H]2OC(C)[C@H](O[C@@H]3C[C@@](C)(O)C(O)C(C)O3)C(N(C)C)C2O)[C@H](CC=O)CC(C)C(=O)/C=C/C(C)=C/[C@@H]1COC1OC(C)C(O)C(OC)[C@@H]1OC (some centres undefined) | TAB113 | 3.162 | inhibitor, partial curve
CCC1OC(=O)CC(O)C(C)[C@@H](O[C@@H]2OC(C)[C@H](O[C@@H]3C[C@@](C)(O)C(O)C(C)O3)C(N(C)C)C2O)[C@H](CC=O)CC(C)C(=O)/C=C/C(C)=C/[C@@H]1COC1OC(C)C(O)C(OC)[C@@H]1OC (some centres undefined) | CP297 | 3.381 | inhibitor, partial curve, poor fit
CCC1OC(=O)CC(O)C(C)[C@@H](O[C@@H]2OC(C)[C@H](O[C@@H]3C[C@@](C)(O)C(O)C(C)O3)C(N(C)C)C2O)[C@H](CC=O)CC(C)C(=O)/C=C/C(C)=C/[C@@H]1COC1OC(C)C(O)C(OC)[C@@H]1OC (some centres undefined) | CP265 | 2.818 | inhibitor, partial curve
CCC1OC(=O)CC(O)C(C)[C@@H](O[C@@H]2OC(C)[C@H](O[C@@H]3C[C@@](C)(O)C(O)C(C)O3)C(N(C)C)C2O)[C@H](CC=O)CC(C)C(=O)/C=C/C(C)=C/[C@@H]1COC1OC(C)C(O)C(OC)[C@@H]1OC (some centres undefined) | AS120 | 1.995 | inhibitor, full curve
CCC1OC(=O)CC(O)C(C)[C@@H](O[C@@H]2OC(C)[C@H](O[C@@H]3C[C@@](C)(O)C(O)C(C)O3)C(N(C)C)C2O)[C@H](CC=O)CC(C)C(=O)/C=C/C(C)=C/[C@@H]1COC1OC(C)C(O)C(OC)[C@@H]1OC (some centres undefined) | DIV17 | 2.393 | inhibitor, partial curve

The first 4 entries again:

SMILES	setting	Potency (µM)	remark
CC(CCc1ccccc1)NC(C)C(O)c1ccc(O)cc1 (centres undefined)	DIV30	15.1	inhibitor, single point
CC(CCc1ccccc1)NC(C)C(O)c1ccc(O)cc1 (centres undefined)	CP194	15.1	inhibitor, single point
CC(CCc1ccccc1)NC(C)C(O)c1ccc(O)cc1 (centres undefined)	CP215	19.01	inhibitor, single point
CC(CCc1ccccc1)NC(C)C(O)c1ccc(O)cc1 (centres undefined)	P94_40	10	inhibitor, single point

From PubChem BioAssay record AID504749 (NCATS, 2011).